Reference: the supplement of paper PMC3334620
Over roughly 33,000 sequences, “E-score (-0.5 to 0.5)” has its median near -0.016; the highest 2% begin near 0.3. The list shows a part of the results.

molecular target: T1, Yer184c (UniProt P39961); assay: PBM E-score (8-mer binding enrichment) (E-score (-0.5 to 0.5)); higher = stronger / more preferred TF binding; conditions: protein concentration: 100 nM; construct: GST-full length
T1 sequence: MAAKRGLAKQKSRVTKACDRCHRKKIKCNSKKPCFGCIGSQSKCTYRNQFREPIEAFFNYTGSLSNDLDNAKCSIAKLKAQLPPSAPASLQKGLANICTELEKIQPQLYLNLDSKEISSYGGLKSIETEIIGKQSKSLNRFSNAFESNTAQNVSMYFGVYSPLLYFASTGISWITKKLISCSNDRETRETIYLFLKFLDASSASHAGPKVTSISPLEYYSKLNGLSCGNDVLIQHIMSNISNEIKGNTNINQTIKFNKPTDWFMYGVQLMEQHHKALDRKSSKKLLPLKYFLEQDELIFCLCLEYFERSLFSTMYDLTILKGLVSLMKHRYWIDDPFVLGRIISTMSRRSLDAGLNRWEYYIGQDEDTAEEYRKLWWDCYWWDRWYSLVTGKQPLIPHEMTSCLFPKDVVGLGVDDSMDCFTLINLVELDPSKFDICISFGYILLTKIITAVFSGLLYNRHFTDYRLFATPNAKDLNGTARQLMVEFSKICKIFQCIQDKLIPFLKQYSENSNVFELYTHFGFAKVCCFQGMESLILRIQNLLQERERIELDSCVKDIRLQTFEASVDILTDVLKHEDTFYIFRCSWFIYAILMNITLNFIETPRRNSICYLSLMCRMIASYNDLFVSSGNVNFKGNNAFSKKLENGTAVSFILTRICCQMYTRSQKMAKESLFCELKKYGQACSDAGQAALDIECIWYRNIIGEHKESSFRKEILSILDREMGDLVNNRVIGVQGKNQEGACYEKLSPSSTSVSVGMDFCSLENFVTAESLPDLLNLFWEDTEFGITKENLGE
Experimental: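 Universal 'all 10-mer' protein binding microarrays (Agilent AMADID 015681) probed with GST-tagged S. cerevisiae TFs (full-length or DBD) made by in vitro transcription/translation (PURExpress), about 100-200 nM. Bound TF was detected with fluorescent anti-GST. Each ungapped 8-mer (which stands for itself and its reverse complement) is scored by the PBM enrichment score (E-score), a modified Wilcoxon-Mann-Whitney statistic from -0.5 to +0.5, computed with the Universal PBM Analysis Suite. Scale: above 0.35 generally sequence-specific binding.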

Point of comparison: GACCGTAC, “PBM E-score” value -0.238. Against it:
- ATCATACC — higher, 0.0582
- CCTGCCTA — higher, 0.0375
- AGTTGTTG — higher, -0.0477
- CAGAGCGG — higher, -0.0765
- ATATACTA — higher, 0.195
- CCCGTGTA — higher, -0.0128
- AAGAAACG — higher, 0.139
- CCTGAGAA — higher, 0.0534
- TCAGTCGA — higher, -0.0884
- GCTGCACC — higher, -0.179
- CGCATTAC — higher, 0.0155
- CTACCATC — higher, -0.174
- ATCTCATA — higher, 0.0683
- AGAGCTTA — higher, 0.0135
- AACTGTAA — higher, 0.0303
- CCCGGAAC — higher, 0.298
- GAGGCCGC — higher, -0.19
- ACCTCATC — higher, -0.085
- CGGGCTTA — higher, 0.157
- CGGACCCG — higher, 0.27
- CGTAACTA — higher, 0.00684
- AAAAGAGC — higher, -0.134
- AGTATATC — higher, 0.155
- ATGTAGGA — higher, -0.082
- CGGTTTTC — higher, 0.209
- ATCGACAT — higher, 0.137
- CGTTCGGC — higher, 0.27
- GTGGGACA — higher, -0.0231
- CAAGTCCC — higher, -0.218
- CACTGAAA — higher, 0.146
- ATGTCCAC — higher, -0.0872
- ATCCTATA — higher, -0.0164
- CGATAATC — higher, -0.0814
- ACGTCACC — higher, -0.219
- AGCGGGTG — higher, -0.187
- GATTACAC — higher, 0.0435
- ACCTTCAC — higher, -0.132
- ATATTATC — higher, 0.202
- GCAAGGGA — higher, -0.235
- AGTCGCTA — higher, -0.185
- CATAGCCA — higher, -0.125
- CTAGGCCC — lower, -0.287
- AGCGAGCA — higher, -0.0248
- GTCGCCTA — higher, -0.157
- CCACGGAC — higher, -0.00729
- CGAGCCAA — higher, -0.014
- ACACCAGG — higher, -0.0909
- CTCGCTCC — higher, -0.0425
- AAATCAAC — higher, -0.0185
- AGGTATTC — higher, 0.0402
- ACGCGGGC — higher, 0.025
- AATACGCA — higher, -0.13
- GACGCCTC — higher, -0.061
- GGGAATTA — higher, 0.151
- CACTCTAA — higher, -0.0551
- ACCGTTAC — higher, -0.0242
- GCAGTTAC — higher, 0.0774
- CATTATAG — higher, 0.0733
- CGAATGAC — higher, 0.239
- GTAAAGAA — higher, 0.177
- CATTTAAG — higher, -0.0595
- CGTAGCTC — higher, -0.0585
- AAGAAGGC — higher, -0.231
- TCGATTCA — higher, -0.0147
- CCTCATCA — higher, -0.0278
- GTTACAGA — higher, -0.174
- ATCTCTCG — higher, 0.116
- CCCACGCC — higher, -0.194
- ATACGAAT — higher, 0.0699
- GCATAGCA — higher, -0.0886
- AGGTGCAC — higher, -0.148
- AAGTTTAT — higher, 0.177
- GACCTTGC — higher, -0.14
- AGATCATA — higher, 0.0944
- CCGCAAGA — higher, 0.11
- ACAGAAAA — higher, 0.253
- AATATAGA — higher, 0.181
- AAACTCCT — higher, -0.18
- CACTACTA — higher, 0.0715
- ATTCGCAA — higher, 0.128
- AAAGGCAA — higher, -0.0472
- CACCCATG — higher, -0.214
- GGGGTCTA — higher, 0.0612
- GTATCCCA — higher, -0.0951
- AAGGTTAT — higher, 0.0308
- AACCGAGT — higher, 0.0155
- CAAAGCTG — higher, 0.0917
- CCTGCGTA — higher, -0.0742
- AACTGTTA — higher, 0.0489
- CAATAAGC — higher, 0.0333
- AGTAGTAC — higher, 0.193
- ATATGAGC — higher, -0.0199
- GGCATACC — higher, -0.214
- AGTGCGTG — higher, 0.00693
- GACCGAAC — higher, 0.33
- ATGAGACA — higher, 0.0383
- GCATCGCC — higher, 0.0483
- GGCAAAGA — higher, 0.179
- ACACGTCG — higher, -0.206
- GAGTGGCC — higher, -0.0531
- AATGGTTC — higher, 0.0961
- ACGCCTGA — higher, 0.0672
- GTGACTTA — higher, -0.0935
- CATTTGGC — higher, 0.16
- AAGGTAAG — higher, -0.0997
- TATGCGCA — higher, -0.133
- ATGACTTC — higher, -0.0148
- CGCAAGCC — higher, 0.0164
- ACTTTCCT — higher, -0.192
- GACGGCAA — higher, 0.148
- TAACCCAA — higher, 0.0728
- CGTCGAGC — higher, 0.0409
- TCATGGCA — higher, 0.0078
- AGTAAGGA — higher, -0.038
- CCCAATTC — higher, 0.138
- GGCAGGGA — higher, -0.0696
- CAATCGCG — higher, -0.142
- ACGCGACC — higher, -0.116
- ACCATGTC — higher, -0.123
- CGGTTTTA — higher, 0.225
- CATTCCCC — higher, -0.0977
- CTGCTATA — higher, 0.023
- GCGTGACA — higher, 0.02
- CCTAAGCA — higher, -0.098
- GAAATGCA — higher, 0.0215
- GCGCTGCC — higher, -0.154
- CAATCGAG — higher, -0.226
- GGTAATTA — higher, 0.243
- GACATGAC — higher, -0.169
- CCGAATTC — higher, 0.334
- AAGCTCTA — higher, -0.0562
- ATCACGGG — higher, -0.164
- CGACGGCA — higher, -0.101
- CGCTGGAA — higher, 0.0192
- GGAAGTAA — higher, 0.0987
- AGCAGTCC — higher, -0.0967
- CGCGCTGA — higher, -0.0318
- GACATTCA — higher, 0.00052
- ATAGATAC — higher, 0.0299
- TTACTGAA — higher, 0.164
- GTACACGA — higher, 0.0442
- CCGTATGA — higher, 0.219
- TCTGCTCA — higher, -0.201
- CAAAAGGG — higher, -0.101
- GAAAAGAC — higher, 0.191
- CGCCTTAC — higher, -0.179
- CTAAGACA — higher, -0.0196
- GACAAATC — higher, 0.0451
- CCGGTTTC — higher, 0.244
- GAAAAAAA — higher, 0.223
- AGGCCCTG — lower, -0.328
- AACCCGCG — higher, 0.226
- CCCCGACG — higher, -0.0191
- AACATGTG — higher, 0.104
- CGGTGACA — higher, 0.224
- CATAGCAC — higher, 0.00647
- CTAAACAG — higher, 0.0321
- CTAGACGC — higher, -0.176
- CTAAAGAG — higher, -0.142
- CTTATTTC — higher, 0.184
- ATTACTTA — higher, 0.148
- CGTTACCA — higher, -0.138
- CCGTACCA — higher, 0.166
- GTCATAAC — higher, -0.123
- CCACCGGG — higher, -0.00255
- CATTTAAA — higher, 0.271
- CCGGTTTA — higher, 0.176
- AGGCCAGA — higher, -0.0609
- AAAAGTGC — higher, -0.11
- GAATCATA — higher, 0.103
- CATCACTA — higher, 0.0525
